# PubChem BioAssay AID1259308 – NCATS, 2017
# Screen: 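Candidate targets for better recombinant protein yield in mammalian cells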 (primary screen)
# Cells: human HEK293 embryonic kidney cells stably expressing firefly luciferase (HEK-CMV-Luc2-Hygro)
# Knock-down reagent: single siRNA against human genes, 0.8 pmol siRNA per well
# Time to read-out: 72 h
# Detection: 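Luciferase light (ONE-Glo) measured on one replicate plate set and viability (CellTiter-Glo) on the other, scaled to a negative control siRNA, with robust z-scores and luciferase per cell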
# Direction: total luciferase, z-score: higher = more reporter protein produced
# Call rule: 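Active when the median/MAD z-score for overall luciferase is greater than 3; a gene was taken forward for validation with new siRNAs if at least two of its three siRNAs passed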
# Meaning of the calls: active = raised luciferase; inactive = no rise
# In all, the deposit lists about 59,000 reagents; this is a random part of them. Over the whole deposit, about 1,510 (2.6%) are marked active. 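Calls use total luciferase alone and ignore viability, so some active siRNAs may act by altering cell number.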 Reagents against one gene are numbered here. Not all columns of the deposit are shown.
gene symbol,reagent no.,"total luciferase, z-score",call
NXF2B (nuclear RNA export factor 2B),1,0.194,inactive
NXF2B (nuclear RNA export factor 2B),2,0.175,inactive
NXF2B (nuclear RNA export factor 2B),3,1.9,inactive
YTHDF2 (YTH N6-methyladenosine RNA binding protein F2),1,1.29,inactive
YTHDF2 (YTH N6-methyladenosine RNA binding protein F2),2,2.31,inactive
YTHDF2 (YTH N6-methyladenosine RNA binding protein F2),3,2.88,inactive
SETD3,1,0.68,inactive
SETD3,2,-0.615,inactive
SETD3,3,-0.716,inactive
SETD3,4,-0.0414,inactive
SETD3,5,-0.148,inactive
SETD3,6,0.555,inactive
SERF1A (small EDRK-rich factor 1A),1,-0.575,inactive
SERF1A (small EDRK-rich factor 1A),2,-0.336,inactive
SERF1A (small EDRK-rich factor 1A),3,1.61,inactive
NPIPB3 (nuclear pore complex interacting protein family member B3),1,-0.56,inactive
NPIPB3 (nuclear pore complex interacting protein family member B3),2,0.855,inactive
NPIPB3 (nuclear pore complex interacting protein family member B3),3,0.588,inactive
EVI5 (ecotropic viral integration site 5),1,1.05,inactive
EVI5 (ecotropic viral integration site 5),2,0.0965,inactive
EVI5 (ecotropic viral integration site 5),3,1.13,inactive
GLTPP1 (glycolipid transfer protein pseudogene 1),1,2.51,inactive
GLTPP1 (glycolipid transfer protein pseudogene 1),2,-0.966,inactive
GLTPP1 (glycolipid transfer protein pseudogene 1),3,-0.862,inactive
DCHS2 (dachsous cadherin-related 2),1,-0.497,inactive
DCHS2 (dachsous cadherin-related 2),2,-0.235,inactive
DCHS2 (dachsous cadherin-related 2),3,-0.5,inactive
TSPAN1 (tetraspanin 1),1,-0.384,inactive
TSPAN1 (tetraspanin 1),2,0.975,inactive
TSPAN1 (tetraspanin 1),3,0.596,inactive
AEBP2 (AE binding protein 2),1,0.692,inactive
AEBP2 (AE binding protein 2),2,-1.24,inactive
AEBP2 (AE binding protein 2),3,-0.379,inactive
EXTL1 (exostosin like glycosyltransferase 1),1,0.289,inactive
EXTL1 (exostosin like glycosyltransferase 1),2,1.14,inactive
EXTL1 (exostosin like glycosyltransferase 1),3,-2.09,inactive
TBPL1 (TATA-box binding protein like 1),1,0.0247,inactive
TBPL1 (TATA-box binding protein like 1),2,-1.53,inactive
TBPL1 (TATA-box binding protein like 1),3,1.32,inactive
UMAD1 (UBAP1-MVB12-associated (UMA) domain containing 1),1,0.265,inactive
UMAD1 (UBAP1-MVB12-associated (UMA) domain containing 1),2,1.64,inactive
UMAD1 (UBAP1-MVB12-associated (UMA) domain containing 1),3,2.38,inactive
AHNAK2 (AHNAK nucleoprotein 2),1,1.68,inactive
AHNAK2 (AHNAK nucleoprotein 2),2,0.926,inactive
AHNAK2 (AHNAK nucleoprotein 2),3,-1.94,inactive
NXT1 (nuclear transport factor 2 like export factor 1),1,-2.51,inactive
NXT1 (nuclear transport factor 2 like export factor 1),2,1.17,inactive
NXT1 (nuclear transport factor 2 like export factor 1),3,0.689,inactive
CAMK2D (calcium/calmodulin dependent protein kinase II delta),1,0.519,inactive
CAMK2D (calcium/calmodulin dependent protein kinase II delta),2,0.0349,inactive
CAMK2D (calcium/calmodulin dependent protein kinase II delta),3,0.597,inactive
LIME1 (Lck interacting transmembrane adaptor 1),1,0.443,inactive
LIME1 (Lck interacting transmembrane adaptor 1),2,-0.488,inactive
LIME1 (Lck interacting transmembrane adaptor 1),3,-0.367,inactive
THEM5 (thioesterase superfamily member 5),1,-0.758,inactive
THEM5 (thioesterase superfamily member 5),2,-1.08,inactive
THEM5 (thioesterase superfamily member 5),3,-1.06,inactive

Looked up above.
LIME1 (Lck interacting transmembrane adaptor 1) #3, call = inactive
Value of TBPL1 (TATA-box binding protein like 1) #3 under “call”: inactive
DCHS2 (dachsous cadherin-related 2) #1, total luciferase, z-score = -0.497
For “call”, AEBP2 (AE binding protein 2) #2 has inactive
For “total luciferase, z-score”, SETD3 #2 has -0.615
Value of EXTL1 (exostosin like glycosyltransferase 1) #1 under “total luciferase, z-score”: 0.289
